According to PubChem BioAssay AID2685 (National Center for Advancing Translational Sciences (NCATS), 2010):
The other results are listed elsewhere or left out. These are further read-outs of the screen, such as a control signal, another cell line or another target. No call is given for them. Compounds called inactive in the main read-out are mostly missing here. The note in brackets gives the kind of curve behind each potency; many fits are weak.

Test: qHTS Assay for Lipid Storage Modulators in Drosophila S3 Cells;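 for cell number change: cells counted by Cell Tracker Red CMTPX staining in the red channel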
Details: BODIPY lipid droplet fluorescence, 18-24 h; for cell number change: measured here: cell count max response, cells fed with added oleic acid
Outline: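 Drosophila S3 cells loaded with oleic acid (400 uM, as added) and compounds at several concentrations; lipid droplets imaged by 488-nm laser-scanning cytometry, 500–530 nm intensity and object ratio to cell channel. Percent activity normalized to 20 uM Triacsin C.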

[1] = measured here: lipid fluorescence (Fed channel) AC50, cells fed with added oleic acid
[2] = measured here: cell number channel AC50, cells fed with added oleic acid

Structure (SMILES)	cell number change [%]	AC50 [1]	AC50 [2]
O=C(CSc1ccc2ccccc2c1)NCc1cccs1	11.6	1.84 µM [rising, full curve, poor fit]	–
Cn1c(-c2ccc([N+](=O)[O-])cc2)nc2ccccc21	3.31	6.51 µM [falling, single point]	–
COc1ccc(NS(=O)(=O)c2cccc(C(=O)NNC(=O)CN3C(=O)NC(C)(C)C3=O)c2)cc1	-29.8	3.66 µM [falling, full curve]	0.13 µM [falling, full curve, poor fit]
Cn1c(=O)c(C(=O)COC(=O)c2cc(-c3ccco3)nc3ccccc23)c(N)n(Cc2ccccc2)c1=O	-4.14	3.66 µM [rising, full curve]	–
COc1ccc(OC)c(N=Cc2c(O)[nH]c3ccccc23)c1	-68.7	23.1 µM [falling, single point]	18.4 µM [falling, partial curve]
COc1cccc2c1OCC(CN1CCN(CCC(C)C)C(CCO)C1)=C2 (configuration not stated)	-14.3	25.9 µM [falling, single point]	–
CSCc1c(C(=O)Nc2ccccc2N2CCOCC2)oc2ccccc12	2.89	0.92 µM [rising, full curve, poor fit]	–
CCN(CC)c1ccc(CNc2nc3ccccc3n2CCN2CCCCC2)cc1	-64.3	22.4 µM [falling, single point]	35.5 µM [falling, partial curve]
Brc1ccc(-c2nnc(Cc3ccccc3)o2)cc1	10.2	–	–
COc1ccc(-c2csc(NC(=S)NC(=O)c3cccs3)n2)cc1OC	–	0.116 µM [rising, single point]	–
CCN(c1ccccc1)S(=O)(=O)c1ccc(NC(=O)c2ccco2)cc1	-27.2	16.4 µM [falling, single point]	–
CC1(C)C2CCC1(CS(=O)(=O)NCc1ccc(S(N)(=O)=O)cc1)C(=O)C2 (configuration not stated)	12.9	0.184 µM [falling, single point]	–
CCSc1ncnc2sc3c(c12)CCC3	3.32	–	–
N#Cc1ccsc1NC(=O)CN1CCN(S(=O)(=O)c2ccccc2C(F)(F)F)CC1	-41.4	1.84 µM [falling, full curve]	1.84 µM [falling, full curve]
CCOC(=O)c1nnn(-c2ccc([N+](=O)[O-])cc2[N+](=O)[O-])c1C	-23.5	–	–
C=CCn1c(=O)c2ccccc2n2c(SCC(=O)NC(C)C)nnc12	4.17	–	–
CCOCCCNC(=O)CSc1ccccc1	–	0.146 µM [falling, full curve]	–
Cc1ccc(-c2csc(NC(=O)c3ccccc3F)c2C(=O)O)cc1	15.6	3.66 µM [rising, full curve]	–
CCCNC(=O)CSc1nnc(C)s1	–	0.0291 µM [falling, full curve, poor fit]	0.82 µM [rising, full curve, poor fit]
CCOC(=O)Cn1c(Br)nc2c1c(=O)[nH]c(=O)n2C	38	5.17 µM [falling, partial curve, poor fit]	29.1 µM [rising, single point]
CCOC(=O)N1CCN(C(=S)NC(=O)c2c(-c3c(Cl)cccc3Cl)noc2C)CC1	–	–	2.31 µM [rising, partial curve]

Some of the entries so far, field by field.
C=CCn1c(=O)c2ccccc2n2c(SCC(=O)NC(C)C)nnc12
  cell number change [%]: 4.17
CCOCCCNC(=O)CSc1ccccc1
  AC50 [1]: 0.146 µM [falling, full curve]
Cc1ccc(-c2csc(NC(=O)c3ccccc3F)c2C(=O)O)cc1
  cell number change [%]: 15.6
  AC50 [1]: 3.66 µM [rising, full curve]

Additional entries

Structure (SMILES)	cell number change [%]	AC50 [1]	AC50 [2]
COC(=O)c1ccc(C(=O)OC)c(NC(=O)CN2CCN(c3ccccc3OC)CC2)c1	73.5	20.6 µM [rising, partial curve, poor fit]	0.517 µM [rising, full curve]
Nc1ccc(-c2cnc(-c3ccc(N)cc3)nc2)cc1	-18.1	–	–
Nc1nc(-c2ccc(Cl)cc2)nn1C(=O)c1cccnc1	-4.22	0.116 µM [rising, full curve, poor fit]	–
CCOC(=O)N1CCN(c2ccc3nnnn3n2)CC1	23.1	–	0.517 µM [falling, single point]
Cc1ccc(SCC(=O)c2cc(C)c(O)c(C)c2)cc1	-41.1	29.1 µM [falling, single point]	20.6 µM [falling, single point]
CCCCc1nnc(NC(=O)c2ccccc2OCc2c(C)noc2C)s1	-30.1	–	0.058 µM [falling, full curve, poor fit]
CCOc1ccc(NC(=O)CN(c2ccc(C)cc2)S(=O)(=O)c2c(C)nn(C)c2C)cc1	-17.2	–	–
Cc1cc(Cn2nc(C(=O)NCc3cccc(Br)c3)cc2-c2ccccc2)on1	–	1.64 µM [falling, partial curve]	–
CNc1ccccc1C(C)(C)c1cc(-c2ccc(F)cc2)no1	-19.8	29.1 µM [falling, single point]	–
O=C(CCCC(=O)c1ccccc1)Nc1ccc(O)cc1	-7.94	6.51 µM [falling, single point]	–
COc1ccc(-c2cc3ccccc3[nH]2)cc1	-20	0.82 µM [falling, full curve]	–
CC(NC(=O)COc1ccccc1-c1ccccc1)c1ccccc1 (configuration not stated)	8.31	–	–
COc1cccc(OC)c1C(=O)NC(=O)NNc1cc(C(F)(F)F)cc(C)n1	10.3	6.51 µM [rising, single point]	–
Cc1ccc(C)c(S(=O)(=O)NCC(=O)N2CCCC2)c1	-3.17	29.1 µM [rising, single point]	–
COc1cccc(CNC(=O)CN2C(=O)CC(c3ccccc3)=Nc3ccccc32)c1	-69.3	0.92 µM [falling, partial curve]	1.3 µM [falling, partial curve]
NS(=O)(=O)c1cccc(NC(=O)CCCC2CCCCC2)c1	10.1	–	–
Cc1ccc(N(CC(=O)N2CCCCC2)S(=O)(=O)c2ccc(C)cc2)cc1	-11.7	0.00461 µM [falling, full curve, poor fit]	–
Cc1ccc(NC(=O)CSc2nn(-c3ccc(Cl)cc3)c(=S)s2)cc1S(=O)(=O)N(C)C	5.45	–	–
CC1(C)OCC(C2CC(c3ccccc3)NS(=O)(=O)O2)O1 (configuration not stated)	7.77	–	–
COc1ccc(OC)c(S(=O)(=O)NCc2cccnc2)c1	31.5	–	–
CC(=O)Nc1ccc(OCC(O)Cn2nc(C)c(C(C)=O)c2C)cc1 (configuration not stated)	–	0.13 µM [falling, partial curve, poor fit]	–

Structure (SMILES)	cell number change [%]	AC50 [1]	AC50 [2]
Cc1ccc(-c2nc(NC(=O)c3nn(C)cc3[N+](=O)[O-])sc2C)cc1C	36.7	29.1 µM [rising, single point]	29.1 µM [rising, single point]
O=C(CC(CC(=O)c1ccccc1)c1ccccc1)c1ccccc1	13.5	16.4 µM [rising, single point]	0.231 µM [rising, full curve, poor fit]
C=CCn1c(SCc2nc3ccccc3[nH]2)nnc1-c1ccc(OC)cc1	-16.2	23.1 µM [falling, single point]	–
Cc1ccc(S(=O)(=O)Nc2ccccc2F)cc1C(=O)NNC(=O)c1csc(N2CCOCC2)n1	125	3.66 µM [rising, single point]	6.51 µM [rising, full curve]
Cc1nnc(NC(=O)C23CC4CC(CC(C4)C2)C3)s1	6.3	6.51 µM [rising, single point]	–
CCOC(=O)c1ccc(NC(=O)C(C)NS(=O)(=O)c2ccc(OC)cc2)cc1 (configuration not stated)	-2.5	29.1 µM [rising, single point]	–
O=C(CN1CCOCC1)Nc1nc2cc([N+](=O)[O-])ccc2s1	-20.8	13 µM [rising, single point]	–
COc1ccc(NC(=S)N2CCN(c3ncccn3)CC2)c(OC)c1	7.19	–	–
Cc1nnc(SCc2ccc(F)cc2)n1NC/C=C/c1ccccc1	-27.2	32.6 µM [falling, single point]	–
O=C(CN1C(=O)CSC1=O)c1ccccc1	8.08	–	–
CCn1c(-c2csc(-c3ccc(Cl)cc3)n2)n[nH]c1=S	-2.81	0.517 µM [rising, full curve]	0.82 µM [rising, partial curve]
COc1ccc(CCn2c(N3CCN(Cc4ccccc4)CC3)nc3c2c(=O)[nH]c(=O)n3C)cc1	-22	0.58 µM [rising, partial curve, poor fit]	–
C/C(=N\NC(=O)c1ccn(C)n1)c1cccc(NC(=O)c2ccncc2)c1	11.4	8.2 µM [rising, partial curve, poor fit]	–
O=C(CNC(=O)c1ccc(Br)o1)NCc1ccc(F)cc1	4.99	0.731 µM [falling, single point]	–
O=C(NCC1CCCN1S(=O)(=O)c1cccs1)c1ccc(F)c(F)c1 (configuration not stated)	33.7	–	16.4 µM [rising, single point]
CCSc1nc(=O)n(-c2ccccc2)c(C)c1C(C)=O	-23.3	0.82 µM [falling, full curve, poor fit]	0.206 µM [falling, full curve, poor fit]
O=C(NC(=S)Nc1ccc(S(=O)(=O)Nc2nccs2)cc1)c1cccc(F)c1	2.25	29.1 µM [rising, single point]	–
CCOCCCNc1nc2ccccc2[nH]1	-13.1	1.16 µM [falling, full curve]	0.146 µM [falling, full curve, poor fit]
Cc1cc2cc3c(cc2nc1SCC(=O)Nc1nc(C)c(C)s1)OCO3	–	0.13 µM [rising, full curve, poor fit]	–

A portion taken from the entries so far, as a working copy:
Structure (SMILES)	cell number change [%]	AC50 [1]	AC50 [2]
O=C(NCC1CCCN1S(=O)(=O)c1cccs1)c1ccc(F)c(F)c1 (configuration not stated)	33.7	–	16.4 µM [rising, single point]
CCSc1nc(=O)n(-c2ccccc2)c(C)c1C(C)=O	-23.3	0.82 µM [falling, full curve, poor fit]	0.206 µM [falling, full curve, poor fit]
